This note sets out measurements from paper doi:10.1101/2020.12.02.404004.

Sequences of proteins named here, by UniProt entry; tags and fusion partners are left off. Residues count along the entry.
UniProt Q9KR64, residues 23-321: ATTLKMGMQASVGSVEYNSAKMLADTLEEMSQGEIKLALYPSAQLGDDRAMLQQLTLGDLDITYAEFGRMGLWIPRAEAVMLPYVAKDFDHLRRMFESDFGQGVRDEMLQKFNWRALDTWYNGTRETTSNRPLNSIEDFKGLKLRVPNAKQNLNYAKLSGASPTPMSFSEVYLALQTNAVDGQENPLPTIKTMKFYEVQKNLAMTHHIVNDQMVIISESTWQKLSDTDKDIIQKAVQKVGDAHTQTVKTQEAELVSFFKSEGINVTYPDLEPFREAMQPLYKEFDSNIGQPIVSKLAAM

This assay concerns the target VcSiaP wild type, untagged (Vibrio cholerae) (UniProt Q9KR64). Nature of the assay: dynamic light scattering.

No constants are given. Whether binding was seen depends on the method and setting.

With “VcSiaP wild type, untagged (from UniProt Q9KR64 23-321)”, the binding entry is recorded as “no binding (tested: 40 mg/ml)”.
